Measurements as given in patent publication US20260035690A1.
Results are given in words; binding and its absence hold for the method and conditions named. Some entries that bind do so weakly or less than the wild type.

Sequences of proteins named here, by UniProt entry; tags and fusion partners are left off. Residues count along the entry.
UniProt P10415, residues 1-207: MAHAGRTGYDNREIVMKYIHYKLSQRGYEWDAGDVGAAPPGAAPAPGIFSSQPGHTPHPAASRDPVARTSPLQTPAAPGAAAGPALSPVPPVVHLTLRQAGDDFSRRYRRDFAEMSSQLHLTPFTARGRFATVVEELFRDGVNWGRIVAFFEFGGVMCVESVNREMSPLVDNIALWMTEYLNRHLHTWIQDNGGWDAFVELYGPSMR

Target: Bcl2 (UniProt P10415)
Assay: one-pot batched yeast mating, barcode sequencing

NLWAAQRYGRELRRMSDEFVDSFKKG (peptide, UniProt Q92934 103-128, looked up) [Bad.BH3]
binding: binds
